Source: PubChem BioAssay AID2685 (National Center for Advancing Translational Sciences (NCATS), 2010)
Some of the results follow. Further columns of the screen follow, without active or inactive calls. The list favours compounds with an active or inconclusive main result. Words in brackets tell the shape of the fitted curve; partial curves, single points and poor fits give uncertain potencies.

Test: qHTS Assay for Lipid Storage Modulators in Drosophila S3 Cells;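 for cell number change: cells counted by Cell Tracker Red CMTPX staining in the red channel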
Conditions: BODIPY lipid droplet fluorescence, 18-24 h; for cell number change: measured here: cell count max response, cells fed with added oleic acid
Method in brief: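 Laser-scanning cytometry quantifies lipid droplet accumulation (500–530 nm total intensity; droplet/cell object ratio) in oleic acid-fed (400 uM added) Drosophila S3 cells treated with a concentration series. 20 uM Triacsin C defined 100% inhibition.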

[1] = measured here: cell number channel AC50, cells fed with added oleic acid
[2] = measured here: lipid fluorescence (Fed channel) AC50, cells fed with added oleic acid

SMILES | AC50 [1] | cell number change [%] | AC50 [2]
Cc1nnsc1C(=O)N/N=C/c1c(F)cccc1Cl | 0.231 µM [rising, partial curve, poor fit] | – | –
Cc1nn(-c2ccccc2)c(C)c1C(=O)NCc1ccc(S(N)(=O)=O)cc1 | – | 2.56 | –
CCOC(=O)N1CCC(NC(=O)c2ccc(NC(=O)C3CCCO3)cc2)CC1 (configuration not stated) | – | -28.4 | 32.6 µM [falling, single point]
COc1ccc(-c2c(NC(C)=O)n(C)c3ccccc3c2=O)cc1 | – | 0.229 | 2.06 µM [falling, partial curve]
CCCCCNC(=O)c1cccc(S(=O)(=O)N2CC3(C)CC2CC(C)(C)C3)c1 (configuration not stated) | – | 16.2 | 2.06 µM [rising, partial curve]
CCN(CC)S(=O)(=O)c1ccc(C(=O)OCC(=O)Nc2sc3c(c2C#N)CCCCC3)cc1 | – | -5.55 | 29.1 µM [falling, single point]
N/C(Cc1cccs1)=N\OC(=O)COc1ccccc1Cl | 0.206 µM [rising, full curve, poor fit] | 33.6 | –
CCn1c(SCC(=O)N2CCC(C)CC2)nc2c1c(=O)n(C)c(=O)n2C | – | – | 6.51 µM [rising, single point]
O=C(NC(=S)Nc1ccc(N2CCN(C(=O)c3ccccc3)CC2)cc1)c1cccs1 | 3.26 µM [falling, partial curve] | -31.4 | 20.6 µM [falling, partial curve, poor fit]
O=C(c1cccs1)N(Cc1ccc(Cl)cc1)C1CCS(=O)(=O)C1 (configuration not stated) | – | 1.22 | –
COc1cccc(NC(=O)C2C3C=CC4(O3)C2C(=O)N(CCN2CCCCC2)C4C(=O)NC2CCCCC2C)c1 (configuration not stated) | – | – | 6.51 µM [falling, single point]
CCOCc1c(C(=O)N2CCN(CCOc3ccc(Cl)cc3)CC2)oc2ccccc12 | 11.6 µM [rising, partial curve] | 97.2 | –
N/C(=N\N=C\c1ccc(O)c(O)c1)c1nonc1N | 29.1 µM [falling, single point] | -37.7 | 16.4 µM [falling, single point]
CCCOc1ccc(C2NC(=O)NC(c3ccccc3)=C2C(C)=O)cc1OCC (configuration not stated) | 5.17 µM [rising, partial curve] | 82.5 | 2.91 µM [rising, partial curve]
Nc1[nH]c(N=NC(=O)c2ccccc2O)c2ccccc12 | 0.116 µM [rising, full curve] | 52.1 | 0.103 µM [rising, full curve, poor fit]
O=C(Nc1ccncc1)c1ccccc1F | 13 µM [falling, partial curve] | -30.8 | –
CC1CCCN(C(=O)N2c3ccccc3Sc3ccccc32)C1 (configuration not stated) | – | -0.831 | 0.0058 µM [falling, full curve, poor fit]
Cc1ccc(Nc2cc(C)nc(-c3ccccc3O)n2)cc1 | 0.461 µM [rising, full curve] | – | 0.517 µM [rising, full curve]
Cc1ccc2nc(/C(C#N)=C\c3cc(O)ccc3[N+](=O)[O-])[nH]c2c1 | – | -38.1 | –
COc1cc(CN2CCc3c([nH]c4ccccc34)C2)cc(OC)c1 | – | 24.4 | 6.51 µM [rising, single point]

SMILES | AC50 [1] | cell number change [%] | AC50 [2]
CC12CCC(=O)N1C(C(=O)N1CCN(c3ccc(C(F)(F)F)cc3[N+](=O)[O-])CC1)CS2 (configuration not stated) | – | -15 | –
Cc1ccc(C(=O)N/C(=C\c2ccc(F)cc2)C(=O)NCCCn2ccnc2)cc1 | – | -8.97 | –
COc1cccc(NC(=O)CN(C)C(=O)c2cn(-c3ccccc3)nc2-c2cccs2)c1 | – | -12.7 | 18.4 µM [falling, single point]
COC(=O)c1c(NC(=O)C2SC(=NC3CCCCC3)C(C(N)=O)=C2N)sc2c1CCCC2 (configuration not stated) | 29.1 µM [falling, single point] | -32.5 | 16.4 µM [falling, single point]
CC(C)(C)c1ccc2c(c1)C(=O)c1ccccc1C2=O | – | -21 | 29.1 µM [falling, single point]
O=C(CC(=O)Nc1ccc(Cl)c(Cl)c1)N/N=C/c1ccc(O)cc1 | 1.3 µM [rising, full curve] | -6.42 | 1.46 µM [rising, full curve]
COc1ccccc1-c1noc(-c2ccccc2C(=O)N2CCOCC2)n1 | 4.11 µM [rising, single point] | -0.427 | 0.00517 µM [rising, full curve, poor fit]
Cc1nc2sccn2c(=O)c1S(=O)(=O)N1CCN(c2ccc(F)cc2)CC1 | – | 12.4 | 29.1 µM [rising, single point]
CN(C)c1ccc(C(CN)c2c[nH]c3ccccc23)cc1 (configuration not stated) | 0.103 µM [rising, full curve, poor fit] | -2.21 | 2.31 µM [falling, single point]
CCCN1CCN(CCCNC(=O)CN2C(=O)c3cccnc3Oc3ccc(Cl)cc32)CC1 | – | -1.18 | 0.651 µM [falling, partial curve, poor fit]
O=C(NCc1ccccc1)c1cc(-c2ccco2)on1 | – | -7.23 | 6.51 µM [rising, single point]
COc1cc(C(=O)NCCC(=O)NCCN2CCCCCC2)cc(OC)c1OC | – | -3.92 | 7.31 µM [falling, single point]
Cc1ccc(S(=O)(=O)N2CCC(C(=O)OCC(=O)N3CCC(C)CC3)CC2)cc1C | 18.4 µM [rising, single point] | 75 | –
CCOc1ccc(/C=C2\SC(N3CCc4ccccc4C3)=NC2=O)cc1 | – | -27.4 | 0.259 µM [falling, partial curve, poor fit]
Cc1ccc(S(=O)(=O)N2CCN(C(=O)C3CCCO3)CC2)cc1 (configuration not stated) | 0.103 µM [falling, full curve, poor fit] | -19.4 | –
Cc1ccc(SCC(=O)NCCSCc2ccccc2)cc1 | 2.06 µM [rising, full curve] | 148 | 3.26 µM [rising, full curve]
O=C(O)Cc1cn(Cc2ccc(F)cc2)c2ccccc12 | 4.11 µM [falling, partial curve] | -51.6 | –
NC(=O)CC[C@@H]1NC(=O)[C@H](CO)NC(=O)c2cc([N+](=O)[O-])cc(I)c2NCCCC[C@@H](C(N)=O)NC(=O)[C@H](Cc2ccc(O)cc2)NC1=O | – | -10.9 | 0.00651 µM [falling, full curve, poor fit]
O=C(NCCS(=O)(=O)NCc1ccccn1)c1ccccc1 | – | – | 0.231 µM [rising, full curve, poor fit]
COc1ccc(C(C)N2CC34C=CC(O3)C(C(=O)O)C4C2=O)cc1 (configuration not stated) | 29.1 µM [falling, single point] | -89.4 | –

SMILES | AC50 [1] | cell number change [%] | AC50 [2]
CCOc1ccc(NC(=O)CN2CCN(CC(=O)Nc3ccc(OC)cc3OC)CC2)cc1 | 2.91 µM [rising, single point] | – | 29.1 µM [rising, single point]
O=C(O)COc1ccc2c(c1)O/C(=C\c1cccs1)C2=O | – | -21.7 | 1.84 µM [falling, full curve, poor fit]
COc1cc2c(cc1OC)C(C(=O)Nc1cccc(C)n1)C(c1cccnc1)N(C)C2=O (configuration not stated) | – | 4.16 | 29.1 µM [falling, single point]
C[C@H](OC(=O)NCc1ccc(C(F)(F)F)cc1)[C@@H]1O[C@@]2(C)CCC[C@@H]1O2 | – | -4.93 | 8.2 µM [falling, partial curve]
COc1cccc(N(CC(=O)NC2CCCCC2)C(=O)CCCC(=O)Nc2ccccn2)c1 | – | 24.8 | –
CCOC(=O)N1CCC2(CC1)C(C#N)=C(N)OC1=C2C(=O)CCC1 | – | 5.78 | 4.11 µM [rising, single point]
COc1ccc(C(=O)N2CCC(O)(c3ccc(F)cc3)CC2)cc1OC | – | 14.4 | 18.4 µM [rising, single point]
CN(CC(=O)Nc1ccc(F)c(F)c1F)c1ncnc2sccc12 | 0.461 µM [falling, single point] | – | –
COc1ccc(CCNC(=O)c2n[nH]c(=O)c3ccccc23)cc1 | – | -29.7 | 0.116 µM [falling, full curve, poor fit]
C/C(=N\N1C(=O)c2ccccc2NC1c1ccco1)c1ccccc1O (configuration not stated) | – | 8.12 | –
CC(C)=CC(=O)O[C@H]1[C@@H]2[C@H](C)C(=O)O[C@@H]2C[C@@H](C)[C@@H]2[C@@H](O)CC(=O)[C@]21C | – | -12.9 | 3.66 µM [falling, full curve, poor fit]
Cc1sc2ncn(C(C)C(=O)OC3CCCCC3)c(=O)c2c1C (configuration not stated) | – | -41.6 | –
COc1cc(S(=O)(=O)NCc2ccncc2)ccc1Br | 16.4 µM [falling, partial curve, poor fit] | -48 | –
CCN(CC)c1ccc(/C=N/N2CCN(Cc3ccc(C)cc3C)CC2)c(O)c1 | 6.51 µM [rising, partial curve, poor fit] | 22.2 | –
Cc1ccsc1C(=O)OCC(=O)Nc1nnc(-c2ccccc2)o1 | – | 3.45 | –
COc1ccc(C(=O)CN(C(=O)c2ccc(Cl)cc2)N2C(=O)C3CCCCC3C2=O)cc1 (configuration not stated) | – | 3.13 | 6.51 µM [falling, single point]
CCn1c(SCc2cccc(OC)c2)nc2ccccc2c1=O | – | 7.66 | 11.6 µM [falling, single point]
Cc1ccc(C)n1-c1ccc(C(=O)NCC2CCCO2)cc1 (configuration not stated) | 29.1 µM [falling, single point] | -31.4 | 2.06 µM [rising, single point]

Structural class: the compounds so far with a CF3 group
SMILES | AC50 [1] | cell number change [%] | AC50 [2]
CC12CCC(=O)N1C(C(=O)N1CCN(c3ccc(C(F)(F)F)cc3[N+](=O)[O-])CC1)CS2 (configuration not stated) | – | -15 | –
C[C@H](OC(=O)NCc1ccc(C(F)(F)F)cc1)[C@@H]1O[C@@]2(C)CCC[C@@H]1O2 | – | -4.93 | 8.2 µM [falling, partial curve]
